Measured values published in the supplement of paper PMC4862054.
Small differences around the control level are noise.

How the values were obtained:
Experiment in all cases: normalised response (% of control), CellTox Green; higher = less cell death (100 = DMSO, 0 = benzethonium chloride kill control)
Details in all cases: incubation time: 72 h
MCF-10A = tested on: MCF-10A
Method: (§1)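 DSRT, 72 h incubation, CellTox Green / CellTiter-Glo readout. Signal is normalised to DMSO and benzethonium chloride controls. Value is the normalised response at the lowest tested concentration.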

MDA-MB-453 = tested on: MDA-MB-453
Method: as §1

MDA-MB-468 = tested on: MDA-MB-468
Method: as §1

CAL-51 = tested on: CAL-51
Method: as §1

HCC1143 = tested on: HCC1143
Method: as §1

BT-549 = tested on: BT-549
Method: as §1

HCC1599 = tested on: HCC1599
Method: as §1

CAL-120 = tested on: CAL-120
Method: as §1

BT-474 = tested on: BT-474
Method: as §1

MFM-223 = tested on: MFM-223
Method: as §1

MDA-MB-436 = tested on: MDA-MB-436
Method: as §1

CAL-85-1 = tested on: CAL-85-1
Method: as §1

Hs578T = tested on: Hs578T
Method: as §1

CAL-148 = tested on: CAL-148
Method: as §1

DU-4475 = tested on: DU-4475
Method: as §1

MDA-MB-231 = tested on: MDA-MB-231
Method: as §1

HCC1937 = tested on: HCC1937
Method: as §1

HDQ-P1 = tested on: HDQ-P1
Method: as §1

For `CCN(CC)CCNC(=O)c1c(C)[nH]c(/C=C2\C(=O)Nc3ccc(F)cc32)c1C` [Sunitinib] (0.1 nM), the normalised response (MCF-10A) was 64.2%, the normalised response (MDA-MB-453) was 108% and the normalised response (MDA-MB-468) was 61.4%. For the same molecule, the normalised response (CAL-51) was 105%, the normalised response (HCC1143) was 116% and the normalised response (BT-549) was 98.3%. For the same molecule, the normalised response (HCC1599) was 98.9%, the normalised response (CAL-120) was 97.4% and the normalised response (BT-474) was 103%. The normalised response (MFM-223) was 98.8%, the normalised response (MDA-MB-436) was 65.4% and the normalised response (CAL-85-1) was 97.5%. It also gave a normalised response (Hs578T) of 91.2%, a normalised response (CAL-148) of 94.5% and a normalised response (DU-4475) of 99.6%. For the same molecule, the normalised response (MDA-MB-231) was 108%, the normalised response (HCC1937) was 102% and the normalised response (HDQ-P1) was 86.5%.
